“And” between values parts separate entries of the source, which are not always exact repeats. Identical values can stand only once. Some of the results follow. Shown are side measurements of this screen, not its main read-out; they come without a call. The list favours compounds with an active or inconclusive main result. Words in brackets tell the shape of the fitted curve; partial curves, single points and poor fits give uncertain potencies.
Experiment: qHTS Assay for Lipid Storage Modulators in Drosophila S3 Cells;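 as to cell number change: cells counted by Cell Tracker Red CMTPX staining in the red channel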
Details: BODIPY lipid droplet fluorescence, 18-24 h; for cell number change: measured here: cell count max response, cells fed with added oleic acid
How it was run: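 Drosophila S3 cells loaded with oleic acid (400 uM, as added) and compounds at several concentrations; lipid droplets imaged by 488-nm laser-scanning cytometry, 500–530 nm intensity and object ratio to cell channel. Percent activity normalized to 20 uM Triacsin C.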

[1] = measured here: cell number channel AC50, cells fed with added oleic acid
[2] = measured here: lipid fluorescence (Fed channel) AC50, cells fed with added oleic acid

CCOC(=O)C(Cc1c[nH]c2ccccc12)NC(=O)c1ccco1 (configuration not stated)
cell number change: 96% | AC50 [1]: 29.1 µM [rising, single point]

COc1ccc(OC(=O)c2cnc3n(c2=O)CCS3)cc1
cell number change: -34.5% | AC50 [2]: 29.1 µM [falling, single point]

CC(C)(C)c1ccc(OCCNCc2ccccc2)cc1
cell number change: -29.3% | AC50 [2]: 29.1 µM [falling, single point]

Cc1cccc(N(C)S(=O)(=O)c2ccc(-c3cc(C)no3)s2)c1
cell number change: -10.1% | AC50 [2]: 0.259 µM [falling, full curve, poor fit]

OCCOCCN1CCN(C2=Nc3ccccc3Sc3ccccc32)CC1
cell number change: -6% and -9.51% | AC50 [2]: 1.3 µM [falling, full curve] and 3.66 µM [rising, single point]

COc1cc(OC)cc(C(=O)NCC(=O)N2CCC(C)CC2)c1
cell number change: 36.9% | AC50 [1]: 4.61 µM [rising, full curve]

CC/C(=C1/C(=O)CC(C)(C)C(C(=O)OC)C1=O)N1CCCC1 (configuration not stated)
cell number change: 2.64% | AC50 [2]: 0.0517 µM [falling, full curve, poor fit]

O=C(CCc1ccccc1)NCc1ccncc1
cell number change: 11.9% | AC50 [2]: 29.1 µM [rising, single point]

CS(=O)(=O)N1CCN(c2ccccc2NC(=O)c2ccc(-c3ccc(Cl)cc3Cl)o2)CC1
AC50 [1]: 0.92 µM [rising, full curve] | AC50 [2]: 0.731 µM [rising, full curve]

O=C(Cc1csc(N2CCOCC2)n1)N/N=C/c1cccc(O)c1
cell number change: -1.86%

Cc1ccc(S(=O)(=O)N2CCOCC2)cc1NC(=O)CN1CCC(Cc2ccccc2)CC1
cell number change: -1.59% | AC50 [1]: 6.51 µM [rising, single point] | AC50 [2]: 0.651 µM [falling, full curve, poor fit]

Cc1cc(NS(=O)(=O)c2ccc(NC(=O)C(C)N3C(=O)c4ccccc4C3=O)cc2)nc(C)n1 (configuration not stated)
cell number change: -39.9% | AC50 [1]: 5.17 µM [falling, partial curve] | AC50 [2]: 29.1 µM [falling, single point]

O=C(CCC(=O)Nc1cccc([N+](=O)[O-])c1)NCc1ccccc1
cell number change: -2.99% | AC50 [2]: 23.1 µM [falling, single point]

COC(=O)c1cccc(C(=O)N2CCCC(Nc3ccc(C)c(C)c3)C2)c1 (configuration not stated)
cell number change: 60.1% | AC50 [1]: 25.9 µM [rising, single point]

O=C1c2ccccc2C(=O)N1CC(O)CNc1ccc(Br)cc1 (configuration not stated)
cell number change: -1.13%

COc1cc2cc(/C=C/C(=O)c3ccco3)c(Cl)nc2cc1OC
cell number change: 8.9%

Cc1cc(OC(C)C(=O)NCCN2CCOCC2)c2c(C)c(C)c(=O)oc2c1 (configuration not stated)
cell number change: -11.9%

From PubChem BioAssay AID2685 (National Center for Advancing Translational Sciences (NCATS), 2010)
